Measured values from patent US20240108662A1, “ENGINEERED CELLS FUNCTIONALIZED WITH IMMUNE CHECKPOINT MOLECULES AND USES THEREOF” (The University of North Carolina at Chapel Hill, priority 2020, published 2024).

Test: Proteomic analysis of native murine pancreata and decelled pancreatic ECM (Table 1)
Design: species or system mouse
Conditions: for Pancreatic ECM: Mean of log2(intensities): abundance of the listed protein in decelled pancreatic ECM; for Native pancreas tissue: Mean of log2(intensities): abundance of the listed protein in native murine pancreas tissue

Substance | Mean of log2(intensities) (Native pancreas tissue) | Mean of log2(intensities) (Pancreatic ECM (decelled)) | Pancreatic ECM: Mean of log2(intensities) | Native pancreas tissue: Mean of log2(intensities)
P35293 | 26.74 a.u. | 28.70 a.u. | – | –
O35129 | 28.74 a.u. | 30.48 a.u. | – | –
Q6PHN9 | – | – | 24.73 a.u. | 21.78 a.u.
P70227 | – | – | 25.73 a.u. | 21.85 a.u.
E9Q4Z2 | – | – | 25.49 a.u. | 22.11 a.u.
P02468 | – | – | 29.87 a.u. | 28.48 a.u.
Q6A009 | – | – | 25.83 a.u. | 21.11 a.u.
Q8BVY0 | – | – | 26.14 a.u. | 21.42 a.u.
Q09143 | 24.66 a.u. | 26.76 a.u. | – | –
Q8VDB2 | 21.49 a.u. | 24.01 a.u. | – | –
Q80TL7 | – | – | 24.71 a.u. | 21.45 a.u.
Q570Y9 | 23.97 a.u. | 25.58 a.u. | – | –
Q9Z329 | – | – | 26.22 a.u. | 21.31 a.u.
Q9WV70 | 21.56 a.u. | 24.16 a.u. | – | –
Q6PHZ2 | – | – | 25.75 a.u. | 21.45 a.u.
Q8VEK3 | – | – | 29.90 a.u. | 28.28 a.u.
Q61879 | – | – | 26.24 a.u. | 21.62 a.u.
Q8BWW4 | – | – | 25.03 a.u. | 21.60 a.u.
Q91VE6 | – | – | 25.52 a.u. | 21.74 a.u.
P42227 | 21.60 a.u. | 23.98 a.u. | – | –
E9PZJ8 | – | – | 25.52 a.u. | 22.55 a.u.
Q01149 | – | – | 34.11 a.u. | 29.57 a.u.
P61620;Q9JLR1 | 31.46 a.u. | 33.76 a.u. | – | –
Q60997 | – | – | 33.47 a.u. | 30.73 a.u.
A2A5R2 | – | – | 24.24 a.u. | 21.24 a.u.
Q6NS46 | – | – | 26.22 a.u. | 21.11 a.u.
P02463 | – | – | 31.70 a.u. | 28.24 a.u.
Q9CR57 | 31.06 a.u. | 33.25 a.u. | – | –
Q61102 | 23.88 a.u. | 25.63 a.u. | – | –
